Data as given in US20140234888A1, “Method for Improved Selection of Therapeutic Agents” (priority 2013, published 2014).
At least one structure is not confirmed: it was looked up by name or label, or the drawing left a doubt.

System: patient's blood
Assay: TDR-test in vitro, blood of patient F. (Example 3)
Assay type: cell-based, human

C[C@H]1c2cccc(O)c2C(=O)C2=C(O)[C@]3(O)C(=O)C(C(N)=O)=C(O)[C@@H](N(C)C)[C@@H]3[C@@H](O)[C@@H]21 [Doxycycline]
TDR relative to control (combined with inductothermy, 100 mg, after 24 hours): almost complete recovery to control values
reduction of TDR (combined with inductothermy, 100 mg, range 1-2 hours): threefold
change of TDR in samples of the patient's blood (doses 100 mg and 200 mg, 1, 2 and 24 hours, dose-dependent at 1 and 2 hours): progressive reduction of TDR
